This is an account of results in publication PMC7821884, “BRAF inhibition protects against hearing loss in mice” (Science Advances, 2020).

For one data set, the system named is P3-P4 FVB mouse cochlear explants.
Settings: not given
Consider `COC[C@H]1Cn2cc(-c3nc(Nc4ccnn4C)ncc3C)nc2C(=O)N1Cc1ccc(F)c(F)c1` [AZD0364], for which the “therapeutic index (TI), LD50/IC50” value came to 200.0.

With `CCCS(=O)(=O)Nc1ccc(F)c(C(=O)c2c[nH]c3ncc(Cl)cc23)c1F` [PLX-4720], the “therapeutic index (TI), LD50/IC50” value is 12.0.

As for `CCCS(=O)(=O)Nc1ccc(F)c(C(=O)c2c[nH]c3ncc(-c4ccc(Cl)cc4)cc23)c1F` [vemurafenib], the “therapeutic index (TI), LD50/IC50” value worked out at 15.0.

Consider `CC(=O)Nc1cccc(-n2c(=O)n(C3CC3)c(=O)c3c(Nc4ccc(I)cc4F)n(C)c(=O)c(C)c32)c1` [trametinib], for which the “therapeutic index (TI), LD50/IC50” value is given as 40.0.

For `Cn1c(Nc2ccc(C(F)(F)F)cc2)nc2cc(Oc3ccnc(-c4ncc(C(F)(F)F)[nH]4)c3)ccc21` [RAF-265], the “therapeutic index (TI), LD50/IC50” value was determined as 666.7.

A further data set shares this test system. The arrangement: method as in PMID 29514916, PMID 9303151. The note with it: identical P3 FVB explant model; cited from earlier work.
With `O=S([O-])([O-])=S.[Na+].[Na+]` [STS, sodium thiosulfate], the TI is on record as 285.

`O=c1c2ccccc2[se]n1-c1ccccc1` [ebselen]: the TI is given as 1.4.

With `C[C@@H]1C[C@H]2[C@@H]3CCC4=CC(=O)C=C[C@]4(C)[C@@]3(F)[C@@H](O)C[C@]2(C)[C@@]1(O)C(=O)CO` [dexamethasone], the TI was 20.

In the case of `O=C1Cc2c([nH]c3ccc(Br)cc23)-c2ccccc2N1` [kenpaullone], the TI is 150.

Consider `CSCC[C@@H](N)C(=O)O` [D-methionine], for which the TI was 1.0.
